Source: US9896489B2, “Family of synthetic polynucleotide-binding peptides and uses thereof” (Eastern Virginia Medical School, priority 2012, dated 2018)
Results are given in words; binding and its absence hold for the method and conditions named. Some results given as binding are weak or reduced against the parent protein; the word gives no strength. Tags and fused reporters may be left off the sequences shown.

Legend:
[1] = target: T1, p110^RB, the hypophosphorylated form of retinoblastoma protein (Rb) (UniProt P06400); test: GST pull-down, anti-Rb blot
T1 sequence (looked up): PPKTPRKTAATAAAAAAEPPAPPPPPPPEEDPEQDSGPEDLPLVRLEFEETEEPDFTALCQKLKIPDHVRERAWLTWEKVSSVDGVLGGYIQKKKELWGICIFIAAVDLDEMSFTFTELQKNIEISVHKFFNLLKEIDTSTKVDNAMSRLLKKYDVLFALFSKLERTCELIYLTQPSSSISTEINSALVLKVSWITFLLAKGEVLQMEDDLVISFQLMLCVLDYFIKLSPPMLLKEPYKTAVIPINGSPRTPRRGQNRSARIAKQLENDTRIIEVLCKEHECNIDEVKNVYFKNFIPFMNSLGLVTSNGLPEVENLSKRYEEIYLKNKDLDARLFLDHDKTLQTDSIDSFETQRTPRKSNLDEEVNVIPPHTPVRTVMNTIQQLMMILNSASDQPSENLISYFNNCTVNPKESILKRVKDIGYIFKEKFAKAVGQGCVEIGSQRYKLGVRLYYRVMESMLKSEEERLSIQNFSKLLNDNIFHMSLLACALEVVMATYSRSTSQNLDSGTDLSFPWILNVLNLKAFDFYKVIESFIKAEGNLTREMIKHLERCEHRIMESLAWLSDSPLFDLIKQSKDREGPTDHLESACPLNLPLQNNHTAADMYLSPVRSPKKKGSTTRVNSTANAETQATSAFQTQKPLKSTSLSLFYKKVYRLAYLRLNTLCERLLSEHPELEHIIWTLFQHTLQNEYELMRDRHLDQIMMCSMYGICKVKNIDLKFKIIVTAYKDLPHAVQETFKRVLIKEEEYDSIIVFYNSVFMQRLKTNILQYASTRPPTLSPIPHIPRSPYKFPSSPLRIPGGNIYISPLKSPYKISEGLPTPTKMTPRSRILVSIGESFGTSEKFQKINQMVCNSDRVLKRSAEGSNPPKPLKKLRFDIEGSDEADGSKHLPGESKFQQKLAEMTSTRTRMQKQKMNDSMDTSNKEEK

[2] = target: T1, p110^RB, the hypophosphorylated form of retinoblastoma protein (Rb); test: GST pull-down, anti-Rb blot (FIG. 5 legend)
[3] = target: T1, p110^RB, the hypophosphorylated form of retinoblastoma protein (Rb); test: GST pull-down on glutathione-agarose beads, blot probed with anti-Rb monoclonal antibody

Measured: binding

B1: GST-tagged Purα (Gst-Purα) (protein, UniProt Q00577 1-322, looked up, not shown: a dimerising Fc or GST)
chain: MADRDSGSEQGGAALGSGGSLGHPGSGSGSGGGGGGGGGGGGSGGGGGGAPGGLQHETQELASKRVDIQNKRFYLDVKQNAKGRFLKIAEVGAGGNKSRLTLSMSVAVEFRDYLGDFIEHYAQLGPSQPPDLAQAQDEPRRALKSEFLVRENRKYYMDLKENQRGRFLRIRQTVNRGPGLGSTQGQTIALPAQGLIEFRDALAKLIDDYGVEEEPAELPEGTSLTVDNKRFFFDVGSNKYGVFMRVSEVKPTYRNSITVPYKVWAKFGHTFCKYSEEMKKIQEKQREKRAACEQLHQQQQQQQEETAAATLLLQGEEEGEED
binds: [1] | [2] | [3]
